Values from PubChem BioAssay AID1508597 (Cure First, 2020).
Shown is a random part of the about 2,100 reagents, in one setting of the screen. 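Calls flag viability under 80% in either arm, not effects specific to rucaparib; the reference for percent is not stated.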 Some reagents were tested in more than one well and are listed for each. Reagent sequences are not shown. The record does not give: the 100% reference.

Test: 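Genes whose silencing sensitises or protects ovarian cancer cells against rucaparib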 (primary screen)
System: human ovarian carcinoma lines grown from tumours: OCI-P5x (papillary serous) and OCI-C5x (clear cell)
Reagents: siRNA pool against human genes, 1.25 pmol siRNA per well
Time to read-out: 72 h or 96 h, depending on the cell culture
Treatment: rucaparib 20 µM (about IC30) or vehicle, present until read-out
Rucaparib or vehicle: Rucaparib
Cell line: OCI-C5x (clear cell)
Measured: 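Luminescent ATP-based viability assay read 72 or 96 h after transfection, depending on culture, given as normalised percent viability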
Direction: viability, normalised: higher = more viable cells remaining
Hit rule: 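a well counts as a hit if its normalised viability is under 80 percent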
Calls: active = viability under 80%; inactive = viability 80% or more

no.	target gene	technical replicate	viability, normalised (%)	Outcome
1	FOXA2 (GeneID 3170)	1	31	active
2	FOXA2 (GeneID 3170)	2	29.8	active
3	FOXA2 (GeneID 3170)	3	34	active
4	ARAF (GeneID 369)	1	59.1	active
5	ARAF (GeneID 369)	2	55.1	active
6	ARAF (GeneID 369)	3	44.2	active
7	MED25 (GeneID 81857)	1	33.3	active
8	MED25 (GeneID 81857)	2	38.2	active
9	MED25 (GeneID 81857)	3	37.8	active
10	HDAC11 (GeneID 79885)	1	32.4	active
11	HDAC11 (GeneID 79885)	2	43.4	active
12	HDAC11 (GeneID 79885)	3	38.4	active
13	CHD9 (GeneID 80205)	1	83.2	inactive
14	CHD9 (GeneID 80205)	2	57.9	active
15	CHD9 (GeneID 80205)	3	62.7	active
16	MED1 (GeneID 5469)	1	53.5	active
17	MED1 (GeneID 5469)	2	44.4	active
18	MED1 (GeneID 5469)	3	41	active
19	PIAS2 (GeneID 9063)	1	64.4	active
20	PIAS2 (GeneID 9063)	2	52.6	active
21	PIAS2 (GeneID 9063)	3	48.8	active
22	TPD52 (GeneID 7163)	1	62.8	active
23	TPD52 (GeneID 7163)	2	48.9	active
24	TPD52 (GeneID 7163)	3	45	active
25	PMS2P4 (GeneID 5382)	1	87.3	inactive
26	PMS2P4 (GeneID 5382)	2	80.6	inactive
27	PMS2P4 (GeneID 5382)	3	62.8	active
28	GNE (GeneID 10020)	1	61.4	active
29	GNE (GeneID 10020)	2	84.3	inactive
30	GNE (GeneID 10020)	3	69.7	active
31	WNK2 (GeneID 65268)	1	61.3	active
32	WNK2 (GeneID 65268)	2	64.3	active
33	WNK2 (GeneID 65268)	3	65.8	active
34	UHRF1 (GeneID 29128)	1	54.4	active
35	UHRF1 (GeneID 29128)	1	56.1	active
36	UHRF1 (GeneID 29128)	2	43.6	active
37	UHRF1 (GeneID 29128)	2	40.8	active
38	UHRF1 (GeneID 29128)	3	48.8	active
39	UHRF1 (GeneID 29128)	3	42	active
40	PAX5 (GeneID 5079)	1	30.7	active
41	PAX5 (GeneID 5079)	2	32.6	active
42	PAX5 (GeneID 5079)	3	23.8	active

Records above whose gene name begins with T or t:
target gene	technical replicate	viability, normalised (%)	Outcome
TPD52 (GeneID 7163)	1	62.8	active
TPD52 (GeneID 7163)	2	48.9	active
TPD52 (GeneID 7163)	3	45	active

Additional reagents follow:
no.	target gene	technical replicate	viability, normalised (%)	Outcome
43	PRMT7 (GeneID 54496)	1	60.5	active
44	PRMT7 (GeneID 54496)	2	41.3	active
45	PRMT7 (GeneID 54496)	3	47.9	active
46	TDRD1 (GeneID 56165)	1	64	active
47	TDRD1 (GeneID 56165)	2	68.1	active
48	TDRD1 (GeneID 56165)	3	44.6	active
49	GRK2 (GeneID 156)	1	53.4	active
50	GRK2 (GeneID 156)	2	45.2	active
51	GRK2 (GeneID 156)	3	59.7	active
52	TAF7 (GeneID 6879)	1	57.1	active
53	TAF7 (GeneID 6879)	2	59.6	active
54	TAF7 (GeneID 6879)	3	45.9	active
55	FOXA3 (GeneID 3171)	1	41.6	active
56	FOXA3 (GeneID 3171)	2	36.8	active
57	FOXA3 (GeneID 3171)	3	38.4	active
58	BTK (GeneID 695)	1	73.8	active
59	BTK (GeneID 695)	1	61.6	active
60	BTK (GeneID 695)	2	55.4	active
61	BTK (GeneID 695)	2	62.6	active
62	BTK (GeneID 695)	3	64.8	active
63	BTK (GeneID 695)	3	69.3	active
64	HDAC3 (GeneID 8841)	1	54.4	active
65	HDAC3 (GeneID 8841)	2	54.5	active
66	HDAC3 (GeneID 8841)	3	50.1	active
67	ZC3HAV1 (GeneID 56829)	1	81.6	inactive
68	ZC3HAV1 (GeneID 56829)	2	72	active
69	ZC3HAV1 (GeneID 56829)	3	57.5	active
70	TRIB1 (GeneID 10221)	1	63.9	active
71	TRIB1 (GeneID 10221)	1	41.1	active
72	TRIB1 (GeneID 10221)	2	54.8	active
73	TRIB1 (GeneID 10221)	2	41.9	active
74	TRIB1 (GeneID 10221)	3	43.5	active
75	TRIB1 (GeneID 10221)	3	29.5	active
